# This is one part of the list. These are further read-outs of the screen, such as a control signal, another cell line or another target. No call is given for them. Most of these compounds were active or inconclusive in the main read-out, so they are no random draw. Words in brackets tell the shape of the fitted curve; partial curves, single points and poor fits give uncertain potencies.
# Assay: qHTS Assay to Find Inhibitors of Chronic Active B-Cell Receptor Signaling
# Conditions: ABC-DLBCL IkBa-CBG/CBR reporter, luminescence ratio (green luciferase fused to IkBa over red control in TMD8 lymphoma cells), 4 h
# Method in brief: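 Compounds up to 46 uM were incubated four hours with TMD8 cells whose green CBG68 luciferase is fused to IkappaBalpha; red CBR luminescence normalised the signal, and concentration-effect curves were fitted to fusion, red and ratio data.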
# [1] = measured here: CBR red luminescence, cell number
compound,measurement,setting,value
O=C(CN(Cc1ccccc1)C(=O)CCl)c1cccc(Br)c1,AC50,[1],"6.51 µM [falling, full curve, poor fit]"
O=C(Nc1ccccc1)Nc1ccccc1C(=O)NCc1ccco1,AC50,[1],"13 µM [falling, partial curve, poor fit]"
S=C(NCCc1ccccc1)NCCc1ccccc1,AC50,[1],"1.3 µM [rising, full curve, poor fit]"
O=C(CCOc1ccccc1)Nc1cccc(S(=O)(=O)Nc2ccccc2Cl)c1,AC50,[1],"14.6 µM [falling, single point]"
CC(=O)N1CCN(c2ccc(Nc3ncnc4c3oc3ccccc34)cc2)CC1,AC50,[1],"25.1 µM [falling, single point]"
NCCC(=O)N1c2ccccc2Sc2ccc(Cl)cc21,AC50,[1],"22.4 µM [falling, single point]"
COc1cc(C=C2C(=O)c3ccccc3C2=O)cc(OC)c1,AC50,[1],"35.5 µM [falling, single point]"
Cc1ccc(CNC(=O)c2nnn(-c3cccc(C)c3)c2N)cc1,AC50,[1],"12.6 µM [falling, partial curve]"
CCC[C@@H](CN[C@@H](CNC)[C@H](C)CC)NCC1CCC(C(C)(C)C)CC1 (stereo partly specified),AC50,[1],"35.5 µM [falling, single point]"
CC[N+](CC)(CC#Cc1ccccc1)CC#Cc1ccccc1,AC50,[1],"3.55 µM [falling, single point]"
C=C1CCN(c2ccc(C(=O)NCc3ccc(C)cc3)cc2[N+](=O)[O-])CC1,AC50,measured here: IkBa-CBG green luminescence,"17.8 µM [rising, partial curve, poor fit]"
Cc1c(N/N=C(\C#N)C(=O)c2ccccc2)c(=O)n(-c2ccccc2)n1C,AC50,[1],"14.6 µM [falling, partial curve, poor fit]"
COc1ccc(CCNc2oc(COc3ccc(Br)cc3)nc2C#N)cc1OC,AC50,[1],"29.1 µM [falling, single point]"
O=C(Nc1nc2c(s1)CCCC2)c1ccc2ncsc2c1,AC50,[1],"10.3 µM [falling, partial curve, poor fit]"
O=C(CN1CCN(c2ccccc2)CC1)c1c[nH]c2ccccc12,AC50,[1],"10 µM [falling, partial curve]"
COCCn1cnc2c1c(=O)n(Cc1ccccc1C#N)c(=O)n2Cc1ccccc1,AC50,[1],"6.31 µM [falling, partial curve, poor fit]"
Cc1oc2c(c1C(=O)N1CCOCC1)C(=O)c1ccccc1C2=O,AC50,[1],"4.47 µM [falling, full curve, poor fit]"
COc1ccc(NC(=O)CN2c3cccc4cccc(c34)S2(=O)=O)cc1,AC50,[1],"15.8 µM [falling, single point]"
O=C(NC(Cc1c[nH]c2ccccc12)C(=O)O)/C(=C\c1ccc2c(c1)OCO2)NC(=O)c1ccccc1 (stereo unspecified),AC50,[1],"0.1 µM [rising, full curve, poor fit]"
N#Cc1c(-c2ccccc2Cl)noc1/C=C/Nc1ccc(C(=O)O)cc1,AC50,[1],"0.316 µM [falling, full curve]"
CC(C)CCN(C(=O)Cc1ccc(Cl)c(Cl)c1)c1c(N)n(Cc2ccccc2)c(=O)[nH]c1=O,AC50,[1],"6.31 µM [rising, single point]"
Cc1ccc(C(=O)N/N=C\C=C\c2ccccc2[N+](=O)[O-])cn1,AC50,[1],"15.8 µM [falling, partial curve, poor fit]"
Cc1ccccc1C(=O)c1cccn1CC(=O)NCC1CCCO1 (stereo unspecified),AC50,[1],"8.91 µM [rising, partial curve, poor fit]"
O=C(N/C(=C\c1ccc(F)cc1)C(=O)N1CCCCCC1)c1ccccc1,AC50,[1],"3.16 µM [rising, full curve, poor fit]"
CCc1cc2c(=O)n(CC(=O)NCCc3ccc(OC)c(OC)c3)cnc2s1,AC50,[1],"35.5 µM [rising, single point]"
CCn1c(COc2ccccc2)nnc1SCC(=O)Nc1cc(OC)ccc1OC,AC50,[1],"7.08 µM [falling, partial curve]"
COc1ccc(CN2CCCC(C(=O)Nc3cccc(-n4cccn4)c3)C2)c(F)c1 (stereo unspecified),AC50,[1],"35.5 µM [falling, single point]"
C=CCNC(=S)Nc1cccc(N)c1,AC50,[1],"2.82 µM [rising, partial curve]"
O=C(OC1CCCCC1)c1ccc(NC(=O)C2CCCCC2)cc1,AC50,[1],"5.17 µM [rising, single point]"
COc1cccc(-c2sc3ccccc3c2-c2ccc(OCCN(C)C)cc2)c1,AC50,[1],"29.1 µM [falling, single point]"
Cc1ccccc1CNC(=O)C(=O)NCCC1CCCCN1S(=O)(=O)c1cccs1 (stereo unspecified),AC50,[1],"16.4 µM [falling, partial curve, poor fit]"
CCN(CC)Cc1cc(CCNC(=O)c2ccc(Cl)cc2)ccc1O,AC50,[1],"0.116 µM [rising, full curve, poor fit]"
CCOc1ncccc1C(=O)NNC(=O)c1csc(N2CCOCC2)n1,AC50,[1],"6.51 µM [rising, single point]"
CCOC(=O)c1c(C)[nH]c(C)c1S(=O)(=O)N1CCC(C(=O)N2CCN(c3cccc(C)c3)C(C)C2)CC1 (stereo unspecified),AC50,[1],"25.1 µM [falling, single point]"
COc1ccc(Nc2ncccc2C(=O)Nc2ccccc2)cc1,AC50,[1],"35.5 µM [falling, single point]"
CCCCCC(=O)Nc1ccc2ccccc2c1,AC50,[1],"4.11 µM [rising, partial curve, poor fit]"
O=C(Nc1ccc(-c2nc3cccnc3s2)cc1)c1ccc(Cl)nc1,AC50,[1],"0.1 µM [rising, full curve, poor fit]"
Cc1ccc(NC(=O)CSc2ncnc3ccccc23)cc1S(=O)(=O)N1CCCCC1,AC50,[1],"18.4 µM [falling, partial curve]"
COc1ccc(C(=O)Cn2nc(CNc3ccc(Br)cc3)[n+]3c2CCCCC3)cc1,AC50,[1],"5.62 µM [rising, partial curve, poor fit]"
O=C1CC(N(Cc2ccc3c(c2)OCO3)C(=O)Nc2ccc(F)cc2)C(=O)N1c1ccccc1 (stereo unspecified),AC50,[1],"29.1 µM [falling, single point]"
CC(c1ccco1)N(C(=O)c1cccc(S(=O)(=O)N(C)C)c1)c1ccccn1 (stereo unspecified),AC50,[1],"12.6 µM [rising, single point]"

# Arranged by number of heavy atoms (rising): part of the list above.
compound,measurement,setting,value
O=C(CN(Cc1ccccc1)C(=O)CCl)c1cccc(Br)c1,AC50,[1],"6.51 µM [falling, full curve, poor fit]"
O=C(Nc1ccccc1)Nc1ccccc1C(=O)NCc1ccco1,AC50,[1],"13 µM [falling, partial curve, poor fit]"
CC(c1ccco1)N(C(=O)c1cccc(S(=O)(=O)N(C)C)c1)c1ccccn1 (stereo unspecified),AC50,[1],"12.6 µM [rising, single point]"
CC(=O)N1CCN(c2ccc(Nc3ncnc4c3oc3ccccc34)cc2)CC1,AC50,[1],"25.1 µM [falling, single point]"
Cc1ccccc1CNC(=O)C(=O)NCCC1CCCCN1S(=O)(=O)c1cccs1 (stereo unspecified),AC50,[1],"16.4 µM [falling, partial curve, poor fit]"
COCCn1cnc2c1c(=O)n(Cc1ccccc1C#N)c(=O)n2Cc1ccccc1,AC50,[1],"6.31 µM [falling, partial curve, poor fit]"
O=C1CC(N(Cc2ccc3c(c2)OCO3)C(=O)Nc2ccc(F)cc2)C(=O)N1c1ccccc1 (stereo unspecified),AC50,[1],"29.1 µM [falling, single point]"
O=C(NC(Cc1c[nH]c2ccccc12)C(=O)O)/C(=C\c1ccc2c(c1)OCO2)NC(=O)c1ccccc1 (stereo unspecified),AC50,[1],"0.1 µM [rising, full curve, poor fit]"

# — PubChem BioAssay AID493014 (National Center for Advancing Translational Sciences (NCATS), 2011)
